Experimental findings from publication PMC8382608 are described below.

Chains of the proteins cited; added tags and fusions are not shown. Lines headed by an entry give the natural chain unless they say otherwise; changes in a name come on top.
UniProt Q8TD17: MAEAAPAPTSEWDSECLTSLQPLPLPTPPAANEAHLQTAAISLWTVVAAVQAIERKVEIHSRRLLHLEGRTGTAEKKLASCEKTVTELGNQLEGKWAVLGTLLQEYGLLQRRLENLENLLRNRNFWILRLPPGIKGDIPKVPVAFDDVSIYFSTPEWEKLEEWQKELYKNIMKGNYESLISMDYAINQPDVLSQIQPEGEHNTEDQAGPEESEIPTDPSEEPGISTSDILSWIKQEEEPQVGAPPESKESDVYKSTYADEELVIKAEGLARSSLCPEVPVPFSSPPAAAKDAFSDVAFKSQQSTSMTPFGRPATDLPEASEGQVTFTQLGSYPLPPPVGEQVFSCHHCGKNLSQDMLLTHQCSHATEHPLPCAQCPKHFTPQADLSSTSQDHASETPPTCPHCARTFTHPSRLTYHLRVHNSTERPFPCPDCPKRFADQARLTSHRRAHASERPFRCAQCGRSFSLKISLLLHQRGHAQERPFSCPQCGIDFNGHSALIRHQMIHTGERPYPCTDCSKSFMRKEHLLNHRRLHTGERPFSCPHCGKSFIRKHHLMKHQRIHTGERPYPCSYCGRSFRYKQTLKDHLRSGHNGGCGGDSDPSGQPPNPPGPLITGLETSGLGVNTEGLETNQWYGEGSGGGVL
UniProt Q9ULD5: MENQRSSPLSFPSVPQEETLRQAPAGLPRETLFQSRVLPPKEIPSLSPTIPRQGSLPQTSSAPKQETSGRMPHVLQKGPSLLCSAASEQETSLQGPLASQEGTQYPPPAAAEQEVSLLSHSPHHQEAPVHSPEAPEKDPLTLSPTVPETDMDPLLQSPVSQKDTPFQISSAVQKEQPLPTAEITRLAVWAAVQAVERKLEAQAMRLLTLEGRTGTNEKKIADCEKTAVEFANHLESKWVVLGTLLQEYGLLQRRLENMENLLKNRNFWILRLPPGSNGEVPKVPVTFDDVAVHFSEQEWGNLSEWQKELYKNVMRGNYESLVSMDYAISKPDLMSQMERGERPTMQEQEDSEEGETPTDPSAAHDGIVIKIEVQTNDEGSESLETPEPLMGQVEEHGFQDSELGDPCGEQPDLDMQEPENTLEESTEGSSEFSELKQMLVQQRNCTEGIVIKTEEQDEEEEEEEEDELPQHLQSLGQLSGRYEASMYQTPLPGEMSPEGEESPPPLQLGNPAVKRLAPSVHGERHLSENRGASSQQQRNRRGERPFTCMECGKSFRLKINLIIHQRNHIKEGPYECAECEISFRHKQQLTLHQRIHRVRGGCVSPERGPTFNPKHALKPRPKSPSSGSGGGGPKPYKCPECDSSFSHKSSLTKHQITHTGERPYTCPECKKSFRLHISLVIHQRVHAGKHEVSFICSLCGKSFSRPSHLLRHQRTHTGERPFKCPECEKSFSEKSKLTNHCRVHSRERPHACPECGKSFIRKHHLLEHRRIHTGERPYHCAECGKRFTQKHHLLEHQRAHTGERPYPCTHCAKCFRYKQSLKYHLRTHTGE
UniProt Q9UDV7: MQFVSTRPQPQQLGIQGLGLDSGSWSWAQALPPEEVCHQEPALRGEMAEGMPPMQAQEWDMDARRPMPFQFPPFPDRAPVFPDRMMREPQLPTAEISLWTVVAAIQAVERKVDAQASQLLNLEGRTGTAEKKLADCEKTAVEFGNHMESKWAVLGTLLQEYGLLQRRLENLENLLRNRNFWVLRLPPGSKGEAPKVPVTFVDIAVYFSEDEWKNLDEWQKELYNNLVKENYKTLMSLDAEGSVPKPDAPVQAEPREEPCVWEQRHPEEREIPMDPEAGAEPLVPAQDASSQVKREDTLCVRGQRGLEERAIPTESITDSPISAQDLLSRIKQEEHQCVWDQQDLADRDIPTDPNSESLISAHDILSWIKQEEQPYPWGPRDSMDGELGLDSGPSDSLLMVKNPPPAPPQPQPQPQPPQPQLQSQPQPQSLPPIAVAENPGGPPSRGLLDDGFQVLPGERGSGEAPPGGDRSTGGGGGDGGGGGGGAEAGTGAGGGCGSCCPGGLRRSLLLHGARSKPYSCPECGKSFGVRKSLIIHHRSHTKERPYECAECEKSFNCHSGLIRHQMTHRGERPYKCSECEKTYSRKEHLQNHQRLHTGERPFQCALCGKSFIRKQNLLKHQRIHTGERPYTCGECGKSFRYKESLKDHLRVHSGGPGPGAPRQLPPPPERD

Test [1] addresses DUF3669 domain of human ZNF398 (human) (UniProt Q8TD17). Put plainly: two-hybrid; yeast co-expressing an N-terminal region linked to the GAL4 DNA-binding domain (BD) or the GAL4 activation domain (AD); growth on a selective medium.
The target in test [2] is DUF3669 domain of human ZNF777 (human) (UniProt Q9ULD5). The test is described as above.

Results are given in words; binding and its absence hold for the method and conditions named. Binding can be weak; no strength is given.

Consider “DUF3669 domain of human ZNF282 (from UniProt Q9UDV7) (domain or fragment)”, for which the binding result in test [1] and in test [2] was “binds” each time.
Regarding “DUF3669 domain of human ZNF398 (from UniProt Q8TD17) (domain or fragment)”, the binding result in test [2] is “binds”.
